Test results as given in patent US12673109.
No constants are given. Whether binding was seen depends on the method and setting. Some entries that bind do so weakly or less than the wild type.

Sequences of proteins named here, by UniProt entry; tags and fusion partners are left off. A change or cut given only in a name is not applied to a line headed by its entry.
UniProt P60568: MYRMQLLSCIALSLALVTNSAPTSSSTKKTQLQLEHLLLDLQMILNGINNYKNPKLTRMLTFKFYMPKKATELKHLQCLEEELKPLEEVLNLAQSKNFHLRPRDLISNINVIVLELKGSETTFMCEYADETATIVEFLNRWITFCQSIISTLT

Target: T1, IL-2 receptor (IL-2R) on mouse CD3+CD4+ T cells (sub-population corresponding to regulatory T cells) (mouse) (UniProt P01590+P16297+P34902)
T1 sequence (looked up) 1: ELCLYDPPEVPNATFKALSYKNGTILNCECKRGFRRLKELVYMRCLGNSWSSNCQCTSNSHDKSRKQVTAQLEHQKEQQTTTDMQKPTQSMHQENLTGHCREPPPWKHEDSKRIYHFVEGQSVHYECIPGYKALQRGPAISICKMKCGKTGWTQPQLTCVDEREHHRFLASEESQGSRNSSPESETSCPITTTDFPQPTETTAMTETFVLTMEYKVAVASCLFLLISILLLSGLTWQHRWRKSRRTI
T1 sequence (looked up) 2: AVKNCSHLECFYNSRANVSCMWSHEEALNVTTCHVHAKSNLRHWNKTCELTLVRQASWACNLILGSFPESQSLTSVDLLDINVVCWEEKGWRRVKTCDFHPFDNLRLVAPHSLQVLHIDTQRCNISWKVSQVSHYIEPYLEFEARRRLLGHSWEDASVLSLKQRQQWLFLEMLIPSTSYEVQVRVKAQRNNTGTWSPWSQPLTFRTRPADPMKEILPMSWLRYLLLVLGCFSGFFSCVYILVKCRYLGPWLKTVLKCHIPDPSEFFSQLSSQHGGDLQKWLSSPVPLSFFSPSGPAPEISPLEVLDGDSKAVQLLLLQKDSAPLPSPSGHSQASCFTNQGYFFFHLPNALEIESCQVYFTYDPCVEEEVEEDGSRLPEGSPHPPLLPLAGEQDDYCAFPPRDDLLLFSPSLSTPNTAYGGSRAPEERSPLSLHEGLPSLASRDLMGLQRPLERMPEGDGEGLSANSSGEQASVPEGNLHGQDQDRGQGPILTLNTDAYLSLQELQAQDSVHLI
T1 sequence (looked up) 3: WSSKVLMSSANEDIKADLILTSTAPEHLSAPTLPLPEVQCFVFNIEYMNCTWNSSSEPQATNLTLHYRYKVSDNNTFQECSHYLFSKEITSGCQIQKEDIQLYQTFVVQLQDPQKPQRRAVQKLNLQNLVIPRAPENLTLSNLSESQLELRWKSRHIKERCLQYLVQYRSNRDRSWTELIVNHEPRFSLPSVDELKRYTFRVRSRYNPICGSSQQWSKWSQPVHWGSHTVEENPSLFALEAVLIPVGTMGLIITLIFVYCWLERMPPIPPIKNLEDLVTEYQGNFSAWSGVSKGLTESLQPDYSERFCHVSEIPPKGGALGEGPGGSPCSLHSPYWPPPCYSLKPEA
Test: flow cytometry (FACS): FITC-IL-2 incubated 1 h at 4 °C with sorted mouse CD3+CD4+ T cells, washed at 4 °C to prevent receptor internalization

binding: binds
Substance: IL2-FITC conjugate (recombinant human IL-2, SEQ ID NO:4, conjugated with FITC-maleimide) (from UniProt P60568 21-153) (ligand)
